± gives the standard deviation of the averaged measurements. The list shows a part of the results. Values are raw readings; no control value is given beside them.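 The test system is a mixed culture of neurons, microglia and astrocytes in which bacterial LPS triggers microglia-driven neuron loss, modelling inflammatory neurodegeneration. Each compound was compared with vehicle (DMSO) wells on the same plates, and the SYK inhibitor BAY61-3606 served as the reference neuroprotective control.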
Each compound was assayed on rat primary cerebellar neuron-glia coculture (assay: necrotic cell count (DRAQ7+) per image field (cells per field); higher = more necrosis). Conditions: LPS 0 ng/mL; 1 µM; treatment time 3 days.
Protocol: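 Primary rat (P3-7) cerebellar neuron-glia cocultures in 384-well plates were treated at DIV7 with 1 uM compound, then with or without 100 ng/mL LPS 30 min later, for 3 days. At DIV10 live cells were stained with Hoechst 33342, NeuO (live neurons), IB4-AF594 (microglia) and DRAQ7 (necrotic cells) and imaged at 10x (4 fields per well, IN Cell Analyzer 6000). Cells were classified with Cellpose/CellProfiler plus a Random Trees classifier. Values are per-well mean counts per image field (raw, not min-max normalised) and the median microglial FormFactor per image. Three technical replicates per repeat across 4 biological repeats; DMSO and BAY61-3606 serve as controls.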
In the case of `CC(C)Cc1ccc([C@@H](C)C(=O)NS(C)(=O)=O)cc1`, the necrotic cell count is reported as 76.5 ± 38. In the case of `CC1(C)CC[C@]2(C(=O)O)CC[C@]3(C)[C@H](C(=O)C=C4[C@@]5(C)C=C(C#N)C(=O)C(C)(C)[C@@H]5CC[C@]43C)[C@@H]2C1`, the necrotic cell count is reported as 87.7 ± 34. `Cc1ccc(S(N)(=O)=O)cc1` gave a necrotic cell count of 96.6 ± 46. Work on `COc1ccc(-c2c(C)nn3c(NCCN4CCOCC4)cc(C)nc23)cc1OC` yielded a necrotic cell count of 98.5 ± 32. `O=C(NCC1(c2ccc(F)cc2)CCCC1)C1CCN(Cc2ccccc2)CC1` gave a necrotic cell count of 79.2 ± 21. In the case of `COc1ccc(C2CNC(=O)C2)cc1OC1CCCC1` (stereo not given), the necrotic cell count is reported as 101 ± 48. With `O=C(O)CC(CC(=O)Nc1ccc(Oc2ccc(Cl)cc2)cc1)c1ccccc1` (stereo not given) the necrotic cell count was 89.8 ± 38. `O=C1C2C=Nc3ccccc3C2=NN1c1ccc(Cl)cc1` (stereo not given) gave a necrotic cell count of 69 ± 30. Work on `O=C(NCCCN1CCC2(CC1)OCc1ccccc12)[C@H]1CCCN1Cc1ccccc1` yielded a necrotic cell count of 77.3 ± 32. `CCCc1c(C)c2ccc(O)cc2oc1=O` gave a necrotic cell count of 90.2 ± 32. `O=C(O)c1cc(-c2ccc(Cl)cc2)ncn1` gave a necrotic cell count of 88.1 ± 43. For `Fc1ccc(C(c2ccc(F)cc2)N2CCN(C/C=C/c3ccccc3)CC2)cc1`, the necrotic cell count was 280 ± 110. Compound `Oc1cc2c(cc1O)C(c1ccccc1)CNCC2` (stereo not given) has a necrotic cell count of 98.3 ± 45. For `COC(=O)C1=C(C)NC(C)=C(C(=O)OCCN(C)Cc2ccccc2)C1c1cccc([N+](=O)[O-])c1` (stereo not given), the necrotic cell count was 74.6 ± 27. `CNC[C@H](O)c1ccc(O)c(O)c1` was tested, and the necrotic cell count was 152 ± 40. `COCC(=O)NC/C=C/c1ccc2ncnc(Nc3ccc(Oc4ccc(C)nc4)c(C)c3)c2c1` was tested, and the necrotic cell count was 84.7 ± 44. With `C[C@@H]1COCCN1c1cc(=O)n2c(n1)N(Cc1cncc(Cl)c1)[C@H](C(F)(F)F)CC2` the necrotic cell count was 213 ± 88. `CN(C(=O)CCCOc1ccc2[nH]c(=O)ccc2c1)C1CCCCC1` was tested, and the necrotic cell count was 102 ± 32. With `CCOC(=O)[C@H](CCc1ccccc1)N[C@@H](C)C(=O)N1CCC[C@H]1C(=O)O` the necrotic cell count was 81.9 ± 29. `CCOP(=O)(OCC)C(=Cc1cc(C(C)(C)C)c(O)c(C(C)(C)C)c1)P(=O)(OCC)OCC` gave a necrotic cell count of 47.1 ± 19.

Same assay, conditions: LPS 100 ng/mL; 1 µM; treatment time 3 days
`CC(C)Cc1ccc([C@@H](C)C(=O)NS(C)(=O)=O)cc1` showed a necrotic cell count of 924 ± 240. In the case of `CC1(C)CC[C@]2(C(=O)O)CC[C@]3(C)[C@H](C(=O)C=C4[C@@]5(C)C=C(C#N)C(=O)C(C)(C)[C@@H]5CC[C@]43C)[C@@H]2C1`, the necrotic cell count is reported as 452 ± 200. For `Cc1ccc(S(N)(=O)=O)cc1`, the necrotic cell count was 924 ± 350. `COc1ccc(-c2c(C)nn3c(NCCN4CCOCC4)cc(C)nc23)cc1OC` gave a necrotic cell count of 1260 ± 550. `O=C(NCC1(c2ccc(F)cc2)CCCC1)C1CCN(Cc2ccccc2)CC1` gave a necrotic cell count of 1110 ± 400. In the case of `COc1ccc(C2CNC(=O)C2)cc1OC1CCCC1` (stereo not given), the necrotic cell count is reported as 1310 ± 310. `O=C(O)CC(CC(=O)Nc1ccc(Oc2ccc(Cl)cc2)cc1)c1ccccc1` (stereo not given) was tested, and the necrotic cell count was 809 ± 420. With `O=C1C2C=Nc3ccccc3C2=NN1c1ccc(Cl)cc1` (stereo not given) the necrotic cell count was 766 ± 400. In the case of `O=C(NCCCN1CCC2(CC1)OCc1ccccc12)[C@H]1CCCN1Cc1ccccc1`, the necrotic cell count is reported as 813 ± 240. `CCCc1c(C)c2ccc(O)cc2oc1=O` showed a necrotic cell count of 1020 ± 440. `O=C(O)c1cc(-c2ccc(Cl)cc2)ncn1` showed a necrotic cell count of 1040 ± 340. Compound `Fc1ccc(C(c2ccc(F)cc2)N2CCN(C/C=C/c3ccccc3)CC2)cc1` has a necrotic cell count of 470 ± 160. With `Oc1cc2c(cc1O)C(c1ccccc1)CNCC2` (stereo not given) the necrotic cell count was 954 ± 390. With `COC(=O)C1=C(C)NC(C)=C(C(=O)OCCN(C)Cc2ccccc2)C1c1cccc([N+](=O)[O-])c1` (stereo not given) the necrotic cell count was 929 ± 410. For `CNC[C@H](O)c1ccc(O)c(O)c1`, the necrotic cell count was 124 ± 57. In the case of `COCC(=O)NC/C=C/c1ccc2ncnc(Nc3ccc(Oc4ccc(C)nc4)c(C)c3)c2c1`, the necrotic cell count is reported as 1060 ± 510. `C[C@@H]1COCCN1c1cc(=O)n2c(n1)N(Cc1cncc(Cl)c1)[C@H](C(F)(F)F)CC2` showed a necrotic cell count of 2990 ± 320. With `CN(C(=O)CCCOc1ccc2[nH]c(=O)ccc2c1)C1CCCCC1` the necrotic cell count was 841 ± 500. With `CCOC(=O)[C@H](CCc1ccccc1)N[C@@H](C)C(=O)N1CCC[C@H]1C(=O)O` the necrotic cell count was 772 ± 310. `CCOP(=O)(OCC)C(=Cc1cc(C(C)(C)C)c(O)c(C(C)(C)C)c1)P(=O)(OCC)OCC` was tested, and the necrotic cell count was 1010 ± 430.

From the supplement of paper PMC10973195
